From the supplement of paper PMC12819154, “High-throughput peptide-centric local stability assay extends protein–ligand identification to membrane proteins, tissues and bacteria” (Nature Structural & Molecular Biology, 2025) come the findings set out here.

Amino acid sequences for entries named in this document (tags omitted). A change or cut given only in a name is not applied to a line headed by its entry.
UniProt B2RPV6: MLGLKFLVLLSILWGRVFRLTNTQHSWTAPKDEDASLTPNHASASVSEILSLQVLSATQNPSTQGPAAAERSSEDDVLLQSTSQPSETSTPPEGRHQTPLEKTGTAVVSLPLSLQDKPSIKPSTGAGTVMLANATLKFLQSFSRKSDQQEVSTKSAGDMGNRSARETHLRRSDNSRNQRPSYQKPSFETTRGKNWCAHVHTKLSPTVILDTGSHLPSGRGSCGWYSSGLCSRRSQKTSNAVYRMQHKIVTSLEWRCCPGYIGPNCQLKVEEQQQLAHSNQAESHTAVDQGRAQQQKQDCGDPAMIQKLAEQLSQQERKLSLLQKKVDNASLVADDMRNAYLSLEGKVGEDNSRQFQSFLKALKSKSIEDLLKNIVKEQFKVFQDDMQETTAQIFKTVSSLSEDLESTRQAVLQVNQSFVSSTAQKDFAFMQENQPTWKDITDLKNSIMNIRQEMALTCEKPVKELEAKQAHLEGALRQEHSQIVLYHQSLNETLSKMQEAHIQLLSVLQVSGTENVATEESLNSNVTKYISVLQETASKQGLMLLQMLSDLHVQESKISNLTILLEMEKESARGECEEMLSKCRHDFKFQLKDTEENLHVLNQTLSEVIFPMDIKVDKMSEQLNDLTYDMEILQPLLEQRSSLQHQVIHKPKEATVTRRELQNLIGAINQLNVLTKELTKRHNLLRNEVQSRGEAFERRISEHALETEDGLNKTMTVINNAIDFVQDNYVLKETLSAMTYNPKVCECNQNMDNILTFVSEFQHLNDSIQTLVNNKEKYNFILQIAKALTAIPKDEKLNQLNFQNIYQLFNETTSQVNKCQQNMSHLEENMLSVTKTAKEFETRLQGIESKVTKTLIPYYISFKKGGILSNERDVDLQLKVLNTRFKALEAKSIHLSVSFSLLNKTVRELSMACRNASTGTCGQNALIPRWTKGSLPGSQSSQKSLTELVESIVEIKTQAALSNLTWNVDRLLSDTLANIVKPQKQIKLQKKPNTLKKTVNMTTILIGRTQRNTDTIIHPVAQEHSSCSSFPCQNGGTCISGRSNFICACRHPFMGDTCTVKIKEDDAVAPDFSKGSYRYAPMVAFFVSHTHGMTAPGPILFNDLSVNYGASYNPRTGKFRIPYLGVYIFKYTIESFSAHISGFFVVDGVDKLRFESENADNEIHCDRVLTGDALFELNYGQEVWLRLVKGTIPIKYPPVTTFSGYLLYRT
UniProt A2AKK5: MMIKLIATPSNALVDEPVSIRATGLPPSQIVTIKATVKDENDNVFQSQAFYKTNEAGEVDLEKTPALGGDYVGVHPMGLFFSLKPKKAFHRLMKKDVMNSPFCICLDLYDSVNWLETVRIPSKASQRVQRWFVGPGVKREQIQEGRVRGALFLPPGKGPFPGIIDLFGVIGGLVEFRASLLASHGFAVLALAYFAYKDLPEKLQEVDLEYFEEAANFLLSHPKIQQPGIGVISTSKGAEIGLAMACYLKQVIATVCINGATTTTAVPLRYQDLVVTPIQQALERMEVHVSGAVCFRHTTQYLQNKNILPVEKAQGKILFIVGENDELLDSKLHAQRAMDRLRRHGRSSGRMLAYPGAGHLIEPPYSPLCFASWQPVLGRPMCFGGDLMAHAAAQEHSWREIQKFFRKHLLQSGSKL
UniProt A2AAY5: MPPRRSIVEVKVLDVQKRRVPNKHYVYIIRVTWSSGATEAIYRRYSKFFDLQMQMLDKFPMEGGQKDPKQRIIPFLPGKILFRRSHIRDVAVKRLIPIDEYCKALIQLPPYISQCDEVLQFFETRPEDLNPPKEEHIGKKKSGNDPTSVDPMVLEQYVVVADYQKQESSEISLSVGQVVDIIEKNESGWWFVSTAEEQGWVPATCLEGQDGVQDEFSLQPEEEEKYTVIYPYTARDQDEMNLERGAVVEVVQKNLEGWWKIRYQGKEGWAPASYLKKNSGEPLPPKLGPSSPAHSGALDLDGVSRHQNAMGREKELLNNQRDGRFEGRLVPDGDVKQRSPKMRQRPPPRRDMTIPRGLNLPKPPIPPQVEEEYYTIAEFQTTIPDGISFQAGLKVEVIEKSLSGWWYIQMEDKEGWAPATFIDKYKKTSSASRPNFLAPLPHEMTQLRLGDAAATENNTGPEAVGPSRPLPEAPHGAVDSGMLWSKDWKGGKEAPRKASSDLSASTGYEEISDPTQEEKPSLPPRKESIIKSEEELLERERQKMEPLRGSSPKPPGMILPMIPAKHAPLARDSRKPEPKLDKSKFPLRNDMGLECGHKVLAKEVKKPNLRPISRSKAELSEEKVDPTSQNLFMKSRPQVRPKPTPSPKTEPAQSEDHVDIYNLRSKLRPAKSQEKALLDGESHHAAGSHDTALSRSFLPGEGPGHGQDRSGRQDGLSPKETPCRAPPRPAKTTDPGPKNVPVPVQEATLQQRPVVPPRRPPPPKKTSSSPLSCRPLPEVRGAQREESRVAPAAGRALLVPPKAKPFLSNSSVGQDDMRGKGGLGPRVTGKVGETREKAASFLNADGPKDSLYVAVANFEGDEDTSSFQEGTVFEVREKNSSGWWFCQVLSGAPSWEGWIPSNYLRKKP
UniProt B2RQC6: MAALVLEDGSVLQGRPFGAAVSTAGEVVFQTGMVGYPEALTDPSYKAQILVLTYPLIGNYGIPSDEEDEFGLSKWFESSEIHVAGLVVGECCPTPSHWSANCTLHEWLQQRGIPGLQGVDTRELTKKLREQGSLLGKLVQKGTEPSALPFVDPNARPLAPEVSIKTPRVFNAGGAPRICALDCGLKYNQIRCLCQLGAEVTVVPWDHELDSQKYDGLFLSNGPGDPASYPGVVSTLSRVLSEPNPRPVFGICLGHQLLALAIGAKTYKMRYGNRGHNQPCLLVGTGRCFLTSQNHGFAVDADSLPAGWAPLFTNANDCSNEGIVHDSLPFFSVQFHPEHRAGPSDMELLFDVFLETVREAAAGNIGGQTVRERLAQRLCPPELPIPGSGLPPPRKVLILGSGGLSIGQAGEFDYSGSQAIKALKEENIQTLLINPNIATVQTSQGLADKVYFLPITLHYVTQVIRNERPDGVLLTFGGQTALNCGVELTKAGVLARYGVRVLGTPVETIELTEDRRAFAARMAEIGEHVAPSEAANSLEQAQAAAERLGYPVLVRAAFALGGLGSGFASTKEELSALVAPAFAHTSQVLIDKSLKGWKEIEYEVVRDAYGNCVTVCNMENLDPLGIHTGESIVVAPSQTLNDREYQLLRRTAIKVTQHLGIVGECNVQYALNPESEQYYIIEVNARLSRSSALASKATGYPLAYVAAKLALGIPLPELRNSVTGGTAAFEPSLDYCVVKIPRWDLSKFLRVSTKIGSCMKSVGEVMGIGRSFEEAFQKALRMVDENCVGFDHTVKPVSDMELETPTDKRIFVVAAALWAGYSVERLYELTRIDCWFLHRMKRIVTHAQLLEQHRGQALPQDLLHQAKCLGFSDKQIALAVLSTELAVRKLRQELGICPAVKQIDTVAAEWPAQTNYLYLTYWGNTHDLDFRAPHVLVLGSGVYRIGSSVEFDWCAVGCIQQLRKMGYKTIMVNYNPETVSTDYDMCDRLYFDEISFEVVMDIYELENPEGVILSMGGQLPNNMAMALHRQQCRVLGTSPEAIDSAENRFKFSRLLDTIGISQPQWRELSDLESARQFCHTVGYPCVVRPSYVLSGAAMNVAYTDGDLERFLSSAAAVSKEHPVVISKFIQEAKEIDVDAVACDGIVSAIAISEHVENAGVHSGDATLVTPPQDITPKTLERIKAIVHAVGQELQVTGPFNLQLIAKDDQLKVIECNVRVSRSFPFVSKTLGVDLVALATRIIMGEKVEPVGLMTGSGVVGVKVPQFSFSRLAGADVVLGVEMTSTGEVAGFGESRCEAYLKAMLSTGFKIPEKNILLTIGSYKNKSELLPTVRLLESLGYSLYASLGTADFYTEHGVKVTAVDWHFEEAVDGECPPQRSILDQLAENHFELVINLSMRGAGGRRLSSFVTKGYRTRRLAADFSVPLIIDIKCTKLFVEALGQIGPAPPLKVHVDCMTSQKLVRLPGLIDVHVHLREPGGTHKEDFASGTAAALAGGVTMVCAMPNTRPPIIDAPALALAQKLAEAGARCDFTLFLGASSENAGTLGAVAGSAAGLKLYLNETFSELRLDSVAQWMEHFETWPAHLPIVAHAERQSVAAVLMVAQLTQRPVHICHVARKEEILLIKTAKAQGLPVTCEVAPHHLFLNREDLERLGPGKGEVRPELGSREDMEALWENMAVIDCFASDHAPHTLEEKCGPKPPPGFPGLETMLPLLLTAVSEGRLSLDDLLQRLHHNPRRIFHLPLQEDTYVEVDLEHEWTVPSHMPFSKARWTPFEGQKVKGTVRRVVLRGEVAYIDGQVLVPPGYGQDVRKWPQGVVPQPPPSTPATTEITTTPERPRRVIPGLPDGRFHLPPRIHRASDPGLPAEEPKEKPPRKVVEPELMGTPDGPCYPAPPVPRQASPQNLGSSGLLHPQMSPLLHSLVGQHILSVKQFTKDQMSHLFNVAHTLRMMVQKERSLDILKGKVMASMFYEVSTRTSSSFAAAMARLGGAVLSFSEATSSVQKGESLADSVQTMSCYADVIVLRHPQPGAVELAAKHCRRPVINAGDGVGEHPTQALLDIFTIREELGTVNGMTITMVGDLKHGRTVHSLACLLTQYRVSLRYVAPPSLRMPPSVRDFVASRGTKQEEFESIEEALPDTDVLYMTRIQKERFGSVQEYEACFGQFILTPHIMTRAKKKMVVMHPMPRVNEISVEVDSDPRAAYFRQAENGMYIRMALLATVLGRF
UniProt A2A6A1: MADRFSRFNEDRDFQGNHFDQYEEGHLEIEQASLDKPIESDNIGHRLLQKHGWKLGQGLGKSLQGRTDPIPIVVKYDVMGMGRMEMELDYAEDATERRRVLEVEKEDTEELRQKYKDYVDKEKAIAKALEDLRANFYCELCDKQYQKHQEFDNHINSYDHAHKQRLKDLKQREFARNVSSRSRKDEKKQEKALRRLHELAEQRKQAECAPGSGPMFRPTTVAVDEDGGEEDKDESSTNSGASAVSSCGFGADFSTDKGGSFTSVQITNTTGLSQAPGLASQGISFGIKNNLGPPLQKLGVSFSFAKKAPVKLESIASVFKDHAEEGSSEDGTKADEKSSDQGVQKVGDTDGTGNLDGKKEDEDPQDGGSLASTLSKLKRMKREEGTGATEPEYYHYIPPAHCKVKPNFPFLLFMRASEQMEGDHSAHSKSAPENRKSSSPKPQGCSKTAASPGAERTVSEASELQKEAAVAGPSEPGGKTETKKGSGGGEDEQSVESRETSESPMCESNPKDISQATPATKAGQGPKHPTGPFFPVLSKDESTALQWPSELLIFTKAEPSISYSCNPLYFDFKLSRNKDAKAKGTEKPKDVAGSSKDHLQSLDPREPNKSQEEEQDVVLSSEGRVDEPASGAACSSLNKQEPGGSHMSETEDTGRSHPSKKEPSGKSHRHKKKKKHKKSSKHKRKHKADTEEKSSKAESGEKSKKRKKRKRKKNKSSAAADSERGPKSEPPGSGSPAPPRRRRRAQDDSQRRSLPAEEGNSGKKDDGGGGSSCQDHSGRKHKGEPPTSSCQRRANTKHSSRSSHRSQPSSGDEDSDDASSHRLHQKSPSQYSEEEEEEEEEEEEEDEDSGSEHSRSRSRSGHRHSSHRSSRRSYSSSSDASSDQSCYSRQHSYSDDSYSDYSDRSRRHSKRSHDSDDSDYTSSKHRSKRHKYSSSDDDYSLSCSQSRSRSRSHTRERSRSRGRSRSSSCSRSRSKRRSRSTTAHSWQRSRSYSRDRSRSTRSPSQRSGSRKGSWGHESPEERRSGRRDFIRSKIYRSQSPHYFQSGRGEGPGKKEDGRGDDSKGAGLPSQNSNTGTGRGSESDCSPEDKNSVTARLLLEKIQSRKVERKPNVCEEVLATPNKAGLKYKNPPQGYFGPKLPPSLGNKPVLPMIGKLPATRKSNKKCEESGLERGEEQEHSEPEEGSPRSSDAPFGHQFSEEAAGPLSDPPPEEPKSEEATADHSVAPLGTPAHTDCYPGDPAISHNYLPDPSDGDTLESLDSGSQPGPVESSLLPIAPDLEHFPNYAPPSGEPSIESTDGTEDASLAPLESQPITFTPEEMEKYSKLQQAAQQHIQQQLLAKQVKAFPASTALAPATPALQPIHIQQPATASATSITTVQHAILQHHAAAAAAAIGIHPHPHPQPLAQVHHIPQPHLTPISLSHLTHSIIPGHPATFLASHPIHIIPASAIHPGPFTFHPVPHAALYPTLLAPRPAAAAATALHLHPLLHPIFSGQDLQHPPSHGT

Some of the results follow. Small differences around the control level are noise.

Compound in the assay: CN[C@@H]1C[C@H]2O[C@@](C)([C@@H]1OC)n1c3ccccc3c3c4c(c5c6ccccc6n2c5c31)C(=O)NC4 [staurosporine]
The assay can be described thus: log2 fold change of tryptic peptide abundance, ligand vs vehicle (limited proteolysis) (log2 ratio); higher = more trypsin-susceptible (destabilized). Conditions: ligand concentration: 20 uM; sample: mouse liver crude lysate; replicate design: treated separately.
Turning to “UniProt B2RPV6 (peptide sequence: NQRPSYQKPSFETTR, peptide start residue: 177)”, the log2 fold change is -0.202.

For “UniProt A2AKQ0 (peptide sequence: QHAPVKGEAPAK, peptide start residue: 8)”, the log2 fold change is -0.0311.

Turning to “UniProt A2AKK5 (peptide sequence: KAFHRLMK, peptide start residue: 87)”, the log2 fold change was 0.32.

As to “UniProt B1AVY7 (peptide sequence: SKTTITNLKIPEGGTGDSGR, peptide start residue: 31)”, the log2 fold change came to 0.354.

Regarding “UniProt A2BDX3 (peptide sequence: FEGQMTVYHHDGGPCYR, peptide start residue: 208)”, the log2 fold change worked out at 0.254.

Take “UniProt A2AQ07 (peptide sequence: IREEYPDR, peptide start residue: 155)”: the log2 fold change was -0.0886.

For the target “UniProt A2AAY5 (peptide sequence: NDMGLECGHK, peptide start residue: 589)”, the log2 fold change is 0.299.

For the target “UniProt B2RQC6 (peptide sequence: TLGVDLVALATR, peptide start residue: 1229)”, the log2 fold change is -0.506.

With “UniProt A2A6A1 (peptide sequence: SQSPHYFQSGR, peptide start residue: 1037)”, the log2 fold change turned out to be 0.355.

Consider “UniProt A2AF53 (peptide sequence: VVITQSPGK, peptide start residue: 328)”, for which the log2 fold change was -0.152.

On to “UniProt A2AJI0 (peptide sequence: TAEGLLPFAEAEAFLKK, peptide start residue: 818)”, for which the log2 fold change was 0.619.
